Experimental data published in doi:10.1101/2025.04.30.651472.
These are yes or no findings as the source states them, for the method shown. In cells and extracts the contact can be indirect. Some entries that bind do so weakly or less than the wild type.

By UniProt entry, the sequences of proteins in these tests, tags left out. Where a name states a change or a piece, a line headed by the entry shows the natural chain unless it says otherwise. Chains listed by the source or under a name are the forms on record and can include a tag or linker.
glucocorticoid receptor (GR), wild type (P04150, form named): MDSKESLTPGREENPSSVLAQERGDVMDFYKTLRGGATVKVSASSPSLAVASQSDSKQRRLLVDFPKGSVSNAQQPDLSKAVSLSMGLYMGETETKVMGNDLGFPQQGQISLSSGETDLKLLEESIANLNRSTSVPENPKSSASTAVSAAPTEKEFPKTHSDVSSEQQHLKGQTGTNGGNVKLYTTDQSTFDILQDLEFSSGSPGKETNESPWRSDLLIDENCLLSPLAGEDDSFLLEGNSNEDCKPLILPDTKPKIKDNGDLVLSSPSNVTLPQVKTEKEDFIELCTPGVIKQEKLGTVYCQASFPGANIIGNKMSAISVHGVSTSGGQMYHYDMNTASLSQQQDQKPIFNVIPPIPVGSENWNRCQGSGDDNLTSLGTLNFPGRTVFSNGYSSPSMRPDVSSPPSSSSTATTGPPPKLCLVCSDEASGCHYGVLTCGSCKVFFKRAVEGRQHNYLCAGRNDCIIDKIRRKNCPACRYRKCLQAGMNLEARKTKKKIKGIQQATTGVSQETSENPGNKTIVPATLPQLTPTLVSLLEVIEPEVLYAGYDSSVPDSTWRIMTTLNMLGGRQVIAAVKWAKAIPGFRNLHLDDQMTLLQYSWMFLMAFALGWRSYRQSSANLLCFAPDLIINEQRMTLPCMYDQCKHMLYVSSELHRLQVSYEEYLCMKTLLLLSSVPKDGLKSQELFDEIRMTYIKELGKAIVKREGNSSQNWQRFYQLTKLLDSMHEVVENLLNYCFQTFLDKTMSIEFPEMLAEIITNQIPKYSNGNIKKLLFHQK
RUNX3, wild type (Q13761-2, form named): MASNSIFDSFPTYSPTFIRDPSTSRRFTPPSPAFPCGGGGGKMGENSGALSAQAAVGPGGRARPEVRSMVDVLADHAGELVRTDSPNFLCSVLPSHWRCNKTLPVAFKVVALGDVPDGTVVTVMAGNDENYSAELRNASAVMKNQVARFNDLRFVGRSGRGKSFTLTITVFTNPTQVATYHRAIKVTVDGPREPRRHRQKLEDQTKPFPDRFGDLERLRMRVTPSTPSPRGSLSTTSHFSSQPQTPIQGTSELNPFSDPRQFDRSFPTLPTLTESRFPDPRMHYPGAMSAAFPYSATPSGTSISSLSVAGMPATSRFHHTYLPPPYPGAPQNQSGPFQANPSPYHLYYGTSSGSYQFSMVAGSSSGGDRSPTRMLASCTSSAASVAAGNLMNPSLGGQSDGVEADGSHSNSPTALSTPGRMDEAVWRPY

Target: glucocorticoid receptor (GR), wild type (human) (UniProt P04150)
Assay: co-IP

- binding: binds
Substance: RUNX3, wild type (from UniProt Q13761-2 1-429)
